Laboratory results reported in the supplement of paper PMC10849652.
Some of the results follow.

Chains of the proteins cited; added tags and fusions are not shown. Lines headed by an entry give the natural chain unless they say otherwise; changes in a name come on top.
UniProt Q86TU7: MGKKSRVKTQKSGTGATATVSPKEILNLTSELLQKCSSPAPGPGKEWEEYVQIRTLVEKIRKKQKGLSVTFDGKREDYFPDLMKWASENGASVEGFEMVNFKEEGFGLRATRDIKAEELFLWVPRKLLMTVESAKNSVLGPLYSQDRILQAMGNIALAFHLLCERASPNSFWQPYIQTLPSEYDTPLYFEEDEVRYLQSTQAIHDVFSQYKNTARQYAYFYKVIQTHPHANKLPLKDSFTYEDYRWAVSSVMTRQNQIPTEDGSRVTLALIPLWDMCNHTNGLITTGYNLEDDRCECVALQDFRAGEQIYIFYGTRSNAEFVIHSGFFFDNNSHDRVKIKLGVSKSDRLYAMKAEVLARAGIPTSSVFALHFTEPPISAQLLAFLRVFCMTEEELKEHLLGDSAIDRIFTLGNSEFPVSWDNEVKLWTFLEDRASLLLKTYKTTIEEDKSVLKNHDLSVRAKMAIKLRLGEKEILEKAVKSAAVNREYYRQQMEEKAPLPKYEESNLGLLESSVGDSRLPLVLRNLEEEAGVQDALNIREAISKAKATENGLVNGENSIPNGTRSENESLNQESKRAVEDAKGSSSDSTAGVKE
UniProt Q8TBK2: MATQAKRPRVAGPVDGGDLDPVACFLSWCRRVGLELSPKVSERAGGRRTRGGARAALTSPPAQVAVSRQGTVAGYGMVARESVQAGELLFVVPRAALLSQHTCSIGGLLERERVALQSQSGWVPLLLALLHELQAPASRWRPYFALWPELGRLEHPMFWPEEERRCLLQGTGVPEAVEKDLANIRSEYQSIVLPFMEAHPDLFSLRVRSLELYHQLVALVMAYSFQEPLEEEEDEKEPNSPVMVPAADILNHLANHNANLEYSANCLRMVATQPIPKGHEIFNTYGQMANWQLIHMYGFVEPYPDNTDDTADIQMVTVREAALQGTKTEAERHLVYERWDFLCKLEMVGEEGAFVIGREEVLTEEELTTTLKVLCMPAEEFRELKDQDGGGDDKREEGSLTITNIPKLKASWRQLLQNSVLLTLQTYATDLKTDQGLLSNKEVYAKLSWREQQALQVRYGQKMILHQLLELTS
UniProt O75635: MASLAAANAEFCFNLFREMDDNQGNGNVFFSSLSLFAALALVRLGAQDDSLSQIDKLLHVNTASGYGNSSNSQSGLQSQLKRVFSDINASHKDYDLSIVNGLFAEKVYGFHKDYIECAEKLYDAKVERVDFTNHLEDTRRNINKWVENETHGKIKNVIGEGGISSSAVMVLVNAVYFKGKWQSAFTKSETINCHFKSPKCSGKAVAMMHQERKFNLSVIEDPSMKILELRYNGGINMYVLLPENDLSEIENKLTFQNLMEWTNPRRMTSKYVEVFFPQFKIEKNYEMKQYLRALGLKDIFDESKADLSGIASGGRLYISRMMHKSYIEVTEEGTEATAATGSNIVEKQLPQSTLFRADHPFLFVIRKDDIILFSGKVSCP
UniProt Q9UHW9: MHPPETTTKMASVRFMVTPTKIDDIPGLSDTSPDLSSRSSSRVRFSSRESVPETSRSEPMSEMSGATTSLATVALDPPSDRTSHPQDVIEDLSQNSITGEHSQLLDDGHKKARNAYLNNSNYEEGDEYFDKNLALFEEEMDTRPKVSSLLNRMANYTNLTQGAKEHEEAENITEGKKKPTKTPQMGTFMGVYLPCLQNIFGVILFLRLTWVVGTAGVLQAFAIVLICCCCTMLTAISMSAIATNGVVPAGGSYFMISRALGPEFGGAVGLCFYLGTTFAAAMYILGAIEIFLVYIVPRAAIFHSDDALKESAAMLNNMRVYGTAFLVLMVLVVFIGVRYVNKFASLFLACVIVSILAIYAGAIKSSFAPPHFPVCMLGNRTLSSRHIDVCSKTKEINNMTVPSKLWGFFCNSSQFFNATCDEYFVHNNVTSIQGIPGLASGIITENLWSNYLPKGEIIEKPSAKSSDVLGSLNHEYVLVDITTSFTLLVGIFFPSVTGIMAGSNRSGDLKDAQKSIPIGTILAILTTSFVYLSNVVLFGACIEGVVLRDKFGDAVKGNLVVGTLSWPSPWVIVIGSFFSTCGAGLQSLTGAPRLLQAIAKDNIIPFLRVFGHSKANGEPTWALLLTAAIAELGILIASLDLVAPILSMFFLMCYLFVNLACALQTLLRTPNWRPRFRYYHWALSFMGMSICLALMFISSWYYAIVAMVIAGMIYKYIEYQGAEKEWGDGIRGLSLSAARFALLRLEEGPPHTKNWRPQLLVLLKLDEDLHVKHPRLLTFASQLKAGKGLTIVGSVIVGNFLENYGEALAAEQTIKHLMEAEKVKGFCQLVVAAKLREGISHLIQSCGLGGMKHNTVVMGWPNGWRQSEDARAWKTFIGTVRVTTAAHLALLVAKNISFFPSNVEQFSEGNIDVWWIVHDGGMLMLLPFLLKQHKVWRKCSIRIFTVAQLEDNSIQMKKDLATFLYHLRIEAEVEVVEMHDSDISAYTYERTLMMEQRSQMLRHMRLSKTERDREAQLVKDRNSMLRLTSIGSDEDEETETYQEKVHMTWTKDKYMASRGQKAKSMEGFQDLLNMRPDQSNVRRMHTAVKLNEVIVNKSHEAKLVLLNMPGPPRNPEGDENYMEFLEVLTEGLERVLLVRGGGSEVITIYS
UniProt Q8N196: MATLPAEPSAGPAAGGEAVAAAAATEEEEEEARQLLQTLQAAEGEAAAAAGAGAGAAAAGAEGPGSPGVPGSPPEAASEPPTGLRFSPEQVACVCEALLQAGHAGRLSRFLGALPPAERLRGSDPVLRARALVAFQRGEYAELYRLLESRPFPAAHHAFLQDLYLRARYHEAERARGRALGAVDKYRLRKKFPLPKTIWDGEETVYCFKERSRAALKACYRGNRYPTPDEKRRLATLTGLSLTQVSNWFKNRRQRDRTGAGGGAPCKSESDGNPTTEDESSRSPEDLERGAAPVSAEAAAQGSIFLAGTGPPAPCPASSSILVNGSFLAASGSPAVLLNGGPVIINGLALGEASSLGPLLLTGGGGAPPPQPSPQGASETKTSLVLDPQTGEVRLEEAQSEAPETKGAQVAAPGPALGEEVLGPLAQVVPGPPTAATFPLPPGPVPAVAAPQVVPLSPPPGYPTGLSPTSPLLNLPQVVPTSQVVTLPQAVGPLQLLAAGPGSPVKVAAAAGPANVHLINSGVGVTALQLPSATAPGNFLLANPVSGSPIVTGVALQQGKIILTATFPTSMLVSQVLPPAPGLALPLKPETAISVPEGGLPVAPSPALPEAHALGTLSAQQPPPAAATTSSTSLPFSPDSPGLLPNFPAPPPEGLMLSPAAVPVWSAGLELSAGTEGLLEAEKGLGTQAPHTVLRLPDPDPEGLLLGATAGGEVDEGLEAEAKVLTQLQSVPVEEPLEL
UniProt Q6IA17: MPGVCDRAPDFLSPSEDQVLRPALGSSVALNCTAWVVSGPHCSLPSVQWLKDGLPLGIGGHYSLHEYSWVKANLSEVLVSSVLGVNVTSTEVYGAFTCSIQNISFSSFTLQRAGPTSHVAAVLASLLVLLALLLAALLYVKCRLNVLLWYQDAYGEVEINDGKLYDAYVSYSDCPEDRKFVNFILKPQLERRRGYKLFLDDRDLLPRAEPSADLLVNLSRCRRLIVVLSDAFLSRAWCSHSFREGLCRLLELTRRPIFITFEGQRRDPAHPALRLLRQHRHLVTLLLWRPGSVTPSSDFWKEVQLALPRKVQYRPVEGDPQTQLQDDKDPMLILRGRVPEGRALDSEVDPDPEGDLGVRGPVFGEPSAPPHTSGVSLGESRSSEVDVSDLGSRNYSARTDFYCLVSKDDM
UniProt Q8IUQ4: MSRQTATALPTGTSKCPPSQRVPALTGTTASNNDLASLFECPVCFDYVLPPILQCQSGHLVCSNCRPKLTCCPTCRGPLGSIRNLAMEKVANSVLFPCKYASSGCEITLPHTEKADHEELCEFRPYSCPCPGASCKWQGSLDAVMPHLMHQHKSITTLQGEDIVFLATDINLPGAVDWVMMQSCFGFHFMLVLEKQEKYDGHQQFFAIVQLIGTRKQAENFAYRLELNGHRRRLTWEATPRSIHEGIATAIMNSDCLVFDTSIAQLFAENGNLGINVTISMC

Key:
Experiment in all cases: log2 fold change, soluble protein after heating vs DMSO (PISA); higher = thermal stabilisation; K562 lysate, 10 uM; active = over 0.2 and 3.5 SD of the protein, either way, in both replicates (recomputed)
[1] = compound: NCC(=O)Nc1ccc(-n2nc(C(F)(F)F)cc2-c2ccc3c(ccc4ccccc43)c2)cc1
Summary of the method: (§1)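 Values give the log-two fold change in thermal stability against solvent controls, from duplicates. Crude K562 extract at 1 mg/mL protein, made by dounce homogenisation in PBS pH 7.4 with 1 mM MgCl2, was treated with 10 μM compound for 30 min. After 3 min heating across 48°C-58°C, aliquots were pooled, adjusted to 0.5% NP-40 at 4°C and centrifuged at 21,000xg for 90 min. The supernatant was measured by TMTpro 16plex LC-MS/MS with channel sums equalised.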

vorinostat = compound: O=C(CCCCCCC(=O)Nc1ccccc1)NO [vorinostat]
Summary of the method: as §1

silmitasertib = compound: O=C(O)c1ccc2c(c1)nc(Nc1cccc(Cl)c1)c1ccncc12 [silmitasertib]
Summary of the method: as §1

[2] = compound: O=C1NC(=O)C(c2cnc3ccccn23)=C1c1cn2c3c(cc(F)cc13)CN(C(=O)N1CCCCC1)CC2
Summary of the method: as §1

entospletinib = compound: c1cn2cc(-c3ccc4cn[nH]c4c3)nc(Nc3ccc(N4CCOCC4)cc3)c2n1 [entospletinib]
Summary of the method: as §1

| Target | log2 fold change [1] | log2 fold change (vorinostat) | log2 fold change (silmitasertib) | log2 fold change [2] | log2 fold change (entospletinib) |
| --- | --- | --- | --- | --- | --- |
| SETD3 (UniProt Q86TU7) | inactive: 0.006 | inactive: 0.012 | inactive: -0.009 | inactive: -0.025 | inactive: 0.001 |
| SETD6 (UniProt Q8TBK2) |  | inactive: 0.189 | inactive: 0.036 |  |  |
| SERPINB7 (UniProt O75635) |  |  |  | inactive: 0.437 |  |
| SLC12A6 isoform 2 (UniProt Q9UHW9) |  | inactive: 0.17 | inactive: -0.03 | inactive: -0.064 | inactive: -0.114 |
| SIX5 (UniProt Q8N196) |  | inactive: 0.162 | inactive: -0.011 | inactive: -0.097 |  |
| SIGIRR (UniProt Q6IA17) | inactive: 0.103 |  |  |  | inactive: -0.006 |
| SIAH1 isoform 2 (UniProt Q8IUQ4) |  | inactive: -0.032 | inactive: -0.042 | inactive: 0.065 |  |
